Experiment [1] addresses EGFP-ESRRB (full-length mouse Esrrb in pEGFP-C1) (mouse). Nature of the experiment: co-IP; HEK293T cells co-expressing EGFP-ESRRB or EGFP-ESRRB^S25A with FLAG-OCT4 or FLAG-NANOG; Sucrose-NP40 lysate with GFP-magnetic beads, 4 °C, 2 h; immunoblot; also after DMSO or Thiamet-G (OGA inhibitor) for 48 h. Background: A western blot detects proteins with antibodies after separation by electrophoresis.

Experiment [2] addresses EGFP-ESRRB^S25A (full-length mouse Esrrb^S25A in pEGFP-C1) (mouse). Described as above.

No constants are given. Whether binding was seen depends on the method and setting. Binding seen in cells or lysates may run through a third protein. Binding can be weak; no strength is given. Where a sequence is shown, tags or fusion partners need not be part of it.

B1: FLAG-NANOG (full-length mouse Nanog in p3xFLAG-CMV-10) (protein, UniProt Q80Z64 1-305)
chain: MSVGLPGPHSLPSSEEASNSGNASSMPAVFHPENYSCLQGSATEMLCTEAASPRPSSEDLPLQGSPDSSTSPKQKLSSPEADKGPEEEENKVLARKQKMRTVFSQAQLCALKDRFQKQKYLSLQQMQELSSILNLSYKQVKTWFQNQRMKCKRWQKNQWLKTSNGLIQKGSAPVEYPSIHCSYPQGYLVNASGSLSMWGSQTWTNPTWSSQTWTNPTWNNQTWTNPTWSSQAWTAQSWNGQPWNAAPLHNFGEDFLQPYVQLQQNFSASDLEVNLEATRESHAHFSTPQALELFLNYSVTPPGEI
Turning to B1, the binding result in experiment [1] and in experiment [2] was “binds” each time.
